The supplement of paper PMC10849652
This is one part of the list.

Sequences of proteins named here, by UniProt entry; tags and fusion partners are left off. A change or cut given only in a name is not applied to a line headed by its entry.
UniProt O00287: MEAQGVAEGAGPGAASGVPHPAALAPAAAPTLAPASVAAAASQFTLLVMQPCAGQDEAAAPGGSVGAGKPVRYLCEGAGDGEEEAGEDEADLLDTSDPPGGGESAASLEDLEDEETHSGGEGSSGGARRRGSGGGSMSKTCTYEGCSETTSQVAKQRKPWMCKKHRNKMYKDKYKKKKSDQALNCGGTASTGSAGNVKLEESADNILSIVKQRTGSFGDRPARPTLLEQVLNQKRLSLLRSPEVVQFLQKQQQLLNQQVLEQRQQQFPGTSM
UniProt Q8NC44: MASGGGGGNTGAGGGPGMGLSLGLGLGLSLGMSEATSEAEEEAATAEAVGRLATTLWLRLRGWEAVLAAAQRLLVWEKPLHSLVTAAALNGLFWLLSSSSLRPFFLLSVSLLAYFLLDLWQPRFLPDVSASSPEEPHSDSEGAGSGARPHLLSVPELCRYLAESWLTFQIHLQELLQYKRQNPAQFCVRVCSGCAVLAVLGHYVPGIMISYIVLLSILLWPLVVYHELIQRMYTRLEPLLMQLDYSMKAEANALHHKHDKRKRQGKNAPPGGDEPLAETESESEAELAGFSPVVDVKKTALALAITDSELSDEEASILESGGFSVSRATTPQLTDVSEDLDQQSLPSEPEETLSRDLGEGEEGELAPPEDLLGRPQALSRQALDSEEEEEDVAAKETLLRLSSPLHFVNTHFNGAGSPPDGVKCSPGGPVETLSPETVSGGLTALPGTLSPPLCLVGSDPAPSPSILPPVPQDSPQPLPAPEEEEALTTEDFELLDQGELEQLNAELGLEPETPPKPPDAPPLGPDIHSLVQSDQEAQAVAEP
UniProt Q99496: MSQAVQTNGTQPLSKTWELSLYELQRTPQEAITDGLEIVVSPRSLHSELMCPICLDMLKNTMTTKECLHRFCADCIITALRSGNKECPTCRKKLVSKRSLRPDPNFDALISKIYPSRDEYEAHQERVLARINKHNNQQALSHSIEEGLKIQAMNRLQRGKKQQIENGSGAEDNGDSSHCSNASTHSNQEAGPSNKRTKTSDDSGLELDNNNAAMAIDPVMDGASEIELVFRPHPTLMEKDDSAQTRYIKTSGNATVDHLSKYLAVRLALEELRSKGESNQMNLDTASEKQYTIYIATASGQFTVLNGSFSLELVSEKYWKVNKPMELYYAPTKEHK
UniProt Q6NTF9: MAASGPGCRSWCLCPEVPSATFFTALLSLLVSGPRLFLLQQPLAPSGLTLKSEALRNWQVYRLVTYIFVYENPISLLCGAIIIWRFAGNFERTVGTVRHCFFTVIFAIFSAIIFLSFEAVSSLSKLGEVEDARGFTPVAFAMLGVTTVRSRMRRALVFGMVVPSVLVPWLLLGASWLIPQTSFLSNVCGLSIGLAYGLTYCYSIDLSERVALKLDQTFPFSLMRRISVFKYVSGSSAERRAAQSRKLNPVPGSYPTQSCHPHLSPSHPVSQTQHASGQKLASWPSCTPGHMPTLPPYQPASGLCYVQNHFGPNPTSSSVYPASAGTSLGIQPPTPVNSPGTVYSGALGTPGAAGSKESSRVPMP
UniProt P46063: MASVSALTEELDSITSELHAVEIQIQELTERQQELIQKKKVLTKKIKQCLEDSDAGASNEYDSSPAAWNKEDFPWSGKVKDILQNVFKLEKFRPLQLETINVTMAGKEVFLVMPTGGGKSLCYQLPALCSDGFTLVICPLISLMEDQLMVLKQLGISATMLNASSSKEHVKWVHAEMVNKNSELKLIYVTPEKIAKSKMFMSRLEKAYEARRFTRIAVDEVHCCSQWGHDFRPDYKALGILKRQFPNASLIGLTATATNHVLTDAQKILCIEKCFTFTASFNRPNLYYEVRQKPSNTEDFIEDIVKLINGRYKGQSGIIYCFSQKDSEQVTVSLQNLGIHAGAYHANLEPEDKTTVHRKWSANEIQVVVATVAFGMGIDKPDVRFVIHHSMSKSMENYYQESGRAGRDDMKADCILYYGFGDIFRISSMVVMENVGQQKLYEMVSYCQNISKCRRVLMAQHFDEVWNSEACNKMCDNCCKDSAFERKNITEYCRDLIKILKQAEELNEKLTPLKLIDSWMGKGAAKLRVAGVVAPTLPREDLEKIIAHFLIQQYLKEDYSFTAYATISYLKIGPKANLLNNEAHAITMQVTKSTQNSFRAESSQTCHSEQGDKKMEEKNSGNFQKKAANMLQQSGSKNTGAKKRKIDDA
UniProt P08134, whole entry, looked up: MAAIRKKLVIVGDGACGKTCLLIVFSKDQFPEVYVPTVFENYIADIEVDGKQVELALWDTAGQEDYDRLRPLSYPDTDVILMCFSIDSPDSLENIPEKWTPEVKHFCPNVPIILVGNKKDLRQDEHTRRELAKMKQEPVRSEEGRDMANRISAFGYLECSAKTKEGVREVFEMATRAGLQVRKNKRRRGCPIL
UniProt Q9BVS4: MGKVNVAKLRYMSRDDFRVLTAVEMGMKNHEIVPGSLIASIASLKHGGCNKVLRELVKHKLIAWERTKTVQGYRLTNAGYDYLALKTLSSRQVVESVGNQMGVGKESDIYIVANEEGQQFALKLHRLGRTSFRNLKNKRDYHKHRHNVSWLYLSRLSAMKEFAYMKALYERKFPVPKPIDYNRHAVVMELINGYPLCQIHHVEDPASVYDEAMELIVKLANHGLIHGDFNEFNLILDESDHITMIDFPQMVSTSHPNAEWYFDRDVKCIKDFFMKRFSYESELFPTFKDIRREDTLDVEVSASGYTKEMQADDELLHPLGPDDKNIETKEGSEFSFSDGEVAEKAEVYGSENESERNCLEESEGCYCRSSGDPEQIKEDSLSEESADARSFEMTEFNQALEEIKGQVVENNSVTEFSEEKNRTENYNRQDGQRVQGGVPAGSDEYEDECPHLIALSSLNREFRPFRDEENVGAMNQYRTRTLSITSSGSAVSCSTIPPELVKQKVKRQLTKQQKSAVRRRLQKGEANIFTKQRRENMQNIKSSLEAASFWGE
UniProt O43665: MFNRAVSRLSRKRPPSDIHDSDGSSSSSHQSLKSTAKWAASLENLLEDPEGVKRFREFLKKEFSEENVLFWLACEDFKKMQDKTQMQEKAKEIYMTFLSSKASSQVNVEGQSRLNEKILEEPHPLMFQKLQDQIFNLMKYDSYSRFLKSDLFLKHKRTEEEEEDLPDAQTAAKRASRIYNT
UniProt Q96DM3: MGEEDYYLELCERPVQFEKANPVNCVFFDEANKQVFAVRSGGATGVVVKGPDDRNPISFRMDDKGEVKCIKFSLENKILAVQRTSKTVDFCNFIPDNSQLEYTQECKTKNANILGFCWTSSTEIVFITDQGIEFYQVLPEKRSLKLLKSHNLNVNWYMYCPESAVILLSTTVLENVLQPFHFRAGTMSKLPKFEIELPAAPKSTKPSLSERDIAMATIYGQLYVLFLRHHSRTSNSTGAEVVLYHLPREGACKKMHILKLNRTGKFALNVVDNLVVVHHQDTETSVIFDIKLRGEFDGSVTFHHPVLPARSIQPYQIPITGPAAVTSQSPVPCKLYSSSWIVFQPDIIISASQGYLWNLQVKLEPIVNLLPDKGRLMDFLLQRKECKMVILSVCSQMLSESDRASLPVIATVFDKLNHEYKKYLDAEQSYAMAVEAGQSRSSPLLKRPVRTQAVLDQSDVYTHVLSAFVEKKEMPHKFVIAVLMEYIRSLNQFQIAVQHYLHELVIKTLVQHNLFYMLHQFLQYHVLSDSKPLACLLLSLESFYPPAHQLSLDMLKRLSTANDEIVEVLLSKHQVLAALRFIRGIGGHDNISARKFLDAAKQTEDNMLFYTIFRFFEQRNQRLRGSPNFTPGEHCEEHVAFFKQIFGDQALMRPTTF
UniProt Q9BTD8: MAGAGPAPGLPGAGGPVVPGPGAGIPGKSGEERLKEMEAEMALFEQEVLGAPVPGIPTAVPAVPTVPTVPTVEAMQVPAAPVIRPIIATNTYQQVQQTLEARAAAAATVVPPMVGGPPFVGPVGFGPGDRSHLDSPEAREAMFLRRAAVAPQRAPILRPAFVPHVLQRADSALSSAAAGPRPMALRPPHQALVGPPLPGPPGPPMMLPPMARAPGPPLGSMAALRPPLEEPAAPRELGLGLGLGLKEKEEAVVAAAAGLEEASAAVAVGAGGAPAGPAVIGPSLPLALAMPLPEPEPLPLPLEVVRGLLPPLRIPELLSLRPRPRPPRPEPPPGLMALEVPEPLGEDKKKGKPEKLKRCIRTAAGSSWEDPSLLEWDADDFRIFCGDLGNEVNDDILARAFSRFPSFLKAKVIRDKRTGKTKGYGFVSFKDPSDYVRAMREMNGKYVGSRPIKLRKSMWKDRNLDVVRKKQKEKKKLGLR
UniProt Q96GF1: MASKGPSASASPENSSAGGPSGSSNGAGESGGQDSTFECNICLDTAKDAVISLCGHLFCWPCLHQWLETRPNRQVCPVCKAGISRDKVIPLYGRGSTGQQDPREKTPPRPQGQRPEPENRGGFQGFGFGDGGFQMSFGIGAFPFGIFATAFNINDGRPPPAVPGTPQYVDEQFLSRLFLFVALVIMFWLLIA
UniProt P84095: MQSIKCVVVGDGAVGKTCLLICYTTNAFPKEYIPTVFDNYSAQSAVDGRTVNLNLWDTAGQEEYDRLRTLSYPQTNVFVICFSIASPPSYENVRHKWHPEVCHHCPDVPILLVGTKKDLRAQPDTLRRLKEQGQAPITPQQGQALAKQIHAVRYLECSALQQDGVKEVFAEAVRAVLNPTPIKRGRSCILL
UniProt Q9H1K0: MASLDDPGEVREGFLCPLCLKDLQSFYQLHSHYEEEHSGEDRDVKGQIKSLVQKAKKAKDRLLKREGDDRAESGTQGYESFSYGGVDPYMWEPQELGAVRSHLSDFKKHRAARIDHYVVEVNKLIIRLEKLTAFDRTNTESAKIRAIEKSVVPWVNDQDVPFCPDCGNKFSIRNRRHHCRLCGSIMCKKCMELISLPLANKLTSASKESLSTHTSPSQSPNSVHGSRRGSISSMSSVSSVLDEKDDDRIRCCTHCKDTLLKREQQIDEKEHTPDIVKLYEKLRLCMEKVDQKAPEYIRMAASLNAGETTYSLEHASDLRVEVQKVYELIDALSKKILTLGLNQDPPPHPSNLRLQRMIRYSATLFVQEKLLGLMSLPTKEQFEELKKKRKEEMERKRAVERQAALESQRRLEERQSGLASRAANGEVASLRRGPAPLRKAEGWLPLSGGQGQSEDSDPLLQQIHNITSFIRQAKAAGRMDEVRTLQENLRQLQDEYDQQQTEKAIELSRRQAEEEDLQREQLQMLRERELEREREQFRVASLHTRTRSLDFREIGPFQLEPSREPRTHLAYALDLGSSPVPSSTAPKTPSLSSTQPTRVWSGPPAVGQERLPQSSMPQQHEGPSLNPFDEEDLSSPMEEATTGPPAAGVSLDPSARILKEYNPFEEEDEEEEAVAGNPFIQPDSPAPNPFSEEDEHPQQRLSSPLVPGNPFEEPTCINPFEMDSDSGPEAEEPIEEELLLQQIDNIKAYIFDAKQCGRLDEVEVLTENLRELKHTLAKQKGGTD
UniProt P82980: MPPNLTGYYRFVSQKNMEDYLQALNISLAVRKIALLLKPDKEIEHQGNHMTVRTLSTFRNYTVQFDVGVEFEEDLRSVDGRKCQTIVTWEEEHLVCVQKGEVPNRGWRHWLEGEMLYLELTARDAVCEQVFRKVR
UniProt Q86VR2, whole entry, looked up: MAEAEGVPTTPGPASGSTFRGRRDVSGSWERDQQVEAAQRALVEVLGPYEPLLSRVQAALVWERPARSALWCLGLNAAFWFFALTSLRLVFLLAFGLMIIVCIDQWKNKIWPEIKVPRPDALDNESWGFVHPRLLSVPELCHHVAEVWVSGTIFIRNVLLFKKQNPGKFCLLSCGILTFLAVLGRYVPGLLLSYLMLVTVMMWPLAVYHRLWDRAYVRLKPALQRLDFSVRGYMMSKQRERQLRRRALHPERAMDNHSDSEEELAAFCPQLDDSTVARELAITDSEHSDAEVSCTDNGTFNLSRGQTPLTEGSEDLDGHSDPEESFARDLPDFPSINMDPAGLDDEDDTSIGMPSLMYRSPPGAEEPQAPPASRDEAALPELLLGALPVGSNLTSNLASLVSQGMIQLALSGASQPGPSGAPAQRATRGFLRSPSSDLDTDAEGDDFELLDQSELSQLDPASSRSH
UniProt Q9ULI2: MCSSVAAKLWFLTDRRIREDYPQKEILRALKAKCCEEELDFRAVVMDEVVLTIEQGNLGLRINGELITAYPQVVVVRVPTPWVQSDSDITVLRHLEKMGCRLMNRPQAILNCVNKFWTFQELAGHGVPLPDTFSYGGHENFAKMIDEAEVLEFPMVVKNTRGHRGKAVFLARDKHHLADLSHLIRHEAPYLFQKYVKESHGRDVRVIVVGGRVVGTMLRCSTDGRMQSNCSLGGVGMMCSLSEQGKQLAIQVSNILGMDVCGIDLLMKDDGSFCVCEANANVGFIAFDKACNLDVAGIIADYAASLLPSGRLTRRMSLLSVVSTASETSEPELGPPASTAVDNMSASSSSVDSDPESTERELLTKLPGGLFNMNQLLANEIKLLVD

Assays:
Assay in all cases: log2 fold change, soluble protein after heating vs DMSO (PISA); higher = thermal stabilisation; K562 cells, 10 uM, 30 min; active = over 0.2 and 3.5 SD of the protein, either way, in both replicates (recomputed)
erlotinib = compound: C#Cc1cccc(Nc2ncnc3cc(OCCOC)c(OCCOC)cc23)c1 [erlotinib]
In short: (§1)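 K562 cells at 2×10^6 cells/mL were treated with 10 μM compound for 30 min. Aliquots were heated for 3 min across 48°C-58°C, pooled, and extracted in PBS with 0.5% NP-40 at 4°C; soluble protein was the supernatant after 21,000xg for 90 min. Soluble protein was quantified by TMTpro 16plex LC-MS/MS with channel sums equalised, and reported as log2 fold change in thermal stability against DMSO controls, with values from duplicates.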

[1] = compound: C/C(=N\NC(=O)C1=CC(=CC=C1)S(=O)(=O)N2CCOCC2)/C3=C(C=CC(=C3)Cl)O
In short: as §1

[2] = compound: C1=CC(=C(C=C1Cl)C2=NC3=NC=CN=C3C(=N2)NC4=CC=NC=C4)F
In short: as §1

[3] = compound: C1=CC(=CC=C1C2=NC3=C(N2)C=C(C=C3)C(=O)N)OC4=CC=C(C=C4)Cl
In short: as §1

[4] = compound: C1=CC2=C(C=CC(=C2)/C=C\3/C(=O)NC(=NCC4=CC=CS4)S3)N=C1
In short: as §1

[5] = compound: C1=CC2=NC=CN=C2C=C1/C=C/3\C(=O)NC(=O)S3
In short: as §1

[6] = compound: C1=CC=C(C=C1)C2=NC(=C(N2)C3=CC=NC=C3)C4=CC(=C(C=C4)Cl)O
In short: as §1

[7] = compound: C1=CC=C2C(=C1)C3=NNC4=CC=CC(=C43)C2=O
In short: as §1

[8] = compound: C1CCN(C1)C(=O)NC2=CC=CC(=C2)NC3=NC=C(C(=N3)NCCC4=CN=CN4)Br
In short: as §1

[9] = compound: C1CN(CCC1(CC2=CC=C(C=C2)Cl)N)C3=NC=NC4=C3C=CN4
In short: as §1

Measured: log2 fold change

RFXAP (UniProt O00287)
inactive: erlotinib 0.05 | [1] 0.003 | [2] -0.006 | [3] 0.014 | [4] 0.055 | [5] 0.032 | [6] 0.017 | [7] -0.108 | [8] -0.052 | [9] 0.093

RHOT2 (UniProt Q8IXI1)
inactive: erlotinib 0.101 | [1] 0.021 | [2] -0.054 | [3] -0.025 | [4] 0.065 | [5] -0.004 | [6] -0.037 | [7] 0.011 | [8] -0.003 | [9] -0.06

RNF113A (UniProt O15541)
inactive: erlotinib 0.008 | [1] 0.001 | [2] 0.041 | [3] 0.003 | [4] -0.023 | [5] 0.034 | [6] -0.056 | [7] 0.018 | [8] 0.016 | [9] 0.099

RNF187 (UniProt Q5TA31)
inactive: erlotinib 0.095 | [1] -0.05 | [2] -0.061 | [3] -0.028 | [4] 0.101 | [5] -0.028 | [6] -0.067 | [7] 0.008 | [8] 0.017 | [9] -0.056

Looked up one by one from the list above, 2 records:
RNF187 (UniProt Q5TA31)
inactive: erlotinib 0.095 | [1] -0.05 | [2] -0.061 | [3] -0.028 | [4] 0.101 | [5] -0.028 | [6] -0.067 | [7] 0.008 | [8] 0.017 | [9] -0.056

RFXAP (UniProt O00287)
inactive: erlotinib 0.05 | [1] 0.003 | [2] -0.006 | [3] 0.014 | [4] 0.055 | [5] 0.032 | [6] 0.017 | [7] -0.108 | [8] -0.052 | [9] 0.093

(further entries)

RETREG2 (UniProt Q8NC44)
inactive: erlotinib -0.041 | [1] 0.073 | [3] 0.014 | [4] -0.07 | [5] 0.004 | [6] -0.147 | [7] -0.01 | [8] 0.047 | [9] -0.102

RNF2 (UniProt Q99496)
inactive: erlotinib -0.014 | [1] 0.116 | [2] -0.013 | [3] -0.231 | [4] -0.057 | [5] -0.004 | [7] -0.053 | [8] -0.103 | [9] -0.006

RHBDD2 isoform 2 (UniProt Q6NTF9)
inactive: erlotinib 0.053 | [1] -0.023 | [2] -0.062 | [3] -0.05 | [4] 0.058 | [5] 0.055 | [7] 0

RECQL (UniProt P46063)
inactive: erlotinib -0.019 | [1] 0.072 | [2] 0.066 | [3] -0.005 | [4] 0.046 | [5] 0.004 | [6] -0.004 | [7] -0.003 | [8] -0.062 | [9] 0.01

RHOC (UniProt P08134)
inactive: erlotinib -0.042 | [1] -0.019 | [2] 0.02 | [3] 0.022 | [4] -0.009 | [5] 0.016 | [6] 0.026 | [7] -0.017 | [8] -0.031 | [9] 0.04

RIOK2 (UniProt Q9BVS4)
inactive: erlotinib -0.081 | [1] -0.064 | [2] -0.149 | [3] 0.097 | [4] -0.043 | [5] -0.055 | [6] -0.01 | [7] 0.055 | [8] 0.035 | [9] -0.209

RGS10 (UniProt O43665)
inactive: erlotinib -0.044 | [1] 0.048 | [2] 0.076 | [3] 0.009 | [4] -0.03 | [5] 0.002 | [6] 0.073 | [7] -0.015 | [8] -0.069 | [9] 0.036

RMC1 (UniProt Q96DM3)
inactive: erlotinib 0.028 | [1] 0.124 | [2] 0.048 | [3] 0.04 | [4] 0.027 | [5] -0.038 | [6] 0.011 | [7] -0.055 | [8] 0.048 | [9] -0.038

RCN1 (UniProt Q15293)
inactive: erlotinib -0.008 | [1] 0.025 | [2] 0 | [3] -0.009 | [4] -0.018 | [5] 0.046 | [6] -0.047 | [7] -0.037 | [8] 0.015 | [9] 0.017

RBP4 (UniProt P02753)
inactive: erlotinib -0.226 | [1] 0.285 | [3] 0.165 | [4] 0.007 | [5] 0.327 | [6] 0.01 | [7] -0.08 | [8] 0.186 | [9] 0.173

RBM42 (UniProt Q9BTD8)
inactive: erlotinib -0.037 | [1] -0.049 | [2] -0.241 | [3] 0.054 | [4] -0.045 | [5] 0.012 | [6] 0.054 | [7] -0.004 | [8] -0.003 | [9] -0.112

RICTOR isoform 3 (UniProt Q6R327)
inactive: erlotinib 0.116 | [1] 0.025 | [2] -0.067 | [3] 0.36 | [4] -0.031 | [7] -0.136 | [8] 0.054 | [9] -0.001

RCC1L (UniProt Q96I51)
inactive: erlotinib 0.011 | [1] 0.038 | [2] 0.016 | [3] 0.014 | [4] 0.047 | [5] 0.046 | [6] 0.044 | [7] -0.009 | [8] 0.027 | [9] 0.034

RCOR3 isoform 3 (UniProt Q9P2K3)
inactive: erlotinib 0.116 | [1] 0.084 | [3] -0.008 | [4] 0.022 | [5] -0.01 | [6] -0.011 | [7] 0.018 | [8] -0.003 | [9] 0.057

RNF185 (UniProt Q96GF1)
inactive: erlotinib -0.054 | [1] -0.006 | [3] 0.009 | [4] 0.136 | [5] 0.026 | [6] 0.133 | [7] -0.007 | [8] 0.457 | [9] -0.031

RNF149 (UniProt Q8NC42)
inactive: erlotinib -0.072 | [1] 0.022 | [2] -0.025 | [3] 0.066 | [4] 0.009 | [5] -0.043 | [6] 0.016 | [7] -0.069 | [8] -0.052 | [9] -0.041

RHOG (UniProt P84095)
inactive: erlotinib 0.022 | [1] -0.02 | [2] 0.015 | [3] -0.003 | [4] 0.041 | [5] 0.008 | [6] 0.061 | [7] -0.013 | [8] -0.044 | [9] 0.032

RBSN (UniProt Q9H1K0)
inactive: erlotinib 0.08 | [1] -0.087 | [3] 0.025 | [4] 0.369 | [5] 0.026 | [6] 0.089 | [7] 0.243 | [8] 0.04 | [9] -0.01

RNF214 (UniProt Q8ND24)
inactive: erlotinib 0.07 | [1] 0.089 | [2] 0.003 | [3] -0.009 | [4] 0.032 | [5] -0.042 | [6] -0.068 | [7] 0.084 | [8] -0.053 | [9] -0.068

RBP5 (UniProt P82980)
inactive: erlotinib 0.027 | [1] 0.058 | [2] 0.117 | [3] -0.036 | [4] 0.074 | [5] 0 | [7] -0.043 | [8] 0.07 | [9] 0.19

RNF167 (UniProt Q9H6Y7)
inactive: erlotinib -0.133 | [1] -0.073 | [2] -0.069 | [3] 0.052 | [4] 0.025 | [5] 0.025 | [6] -0.004 | [7] -0.07 | [8] -0.018 | [9] -0.009

RETREG3 (UniProt Q86VR2)
inactive: erlotinib 0.004 | [1] 0.072 | [2] 0.037 | [3] 0.031 | [4] -0.053 | [5] 0.07 | [6] 0.062 | [7] -0.087 | [8] -0.029 | [9] 0.032

RIMKLB (UniProt Q9ULI2)
inactive: erlotinib -0.25 | [2] -0.234 | [3] -0.02 | [5] -0.133

RELA (UniProt Q04206)
inactive: [1] 0.034 | [2] 0.003 | [3] -0.011 | [4] -0.007 | [5] 0.014 | [6] -0.002 | [7] 0.004 | [8] -0.022 | [9] 0.011

RNF141 (UniProt Q8WVD5)
inactive: erlotinib 0.026 | [3] -0.051 | [5] 0.112 | [6] -0.04 | [8] -0.035 | [9] -0.048
